According to ChEMBL document CHEMBL5444388, “Affinity Phenotypic Cellular Literature for EUbOPEN Chemogenomic Library” (2024):
The source gives many values for each of these; only a part stands here.

Chains of the proteins cited; added tags and fusions are not shown. Lines headed by an entry give the natural chain unless they say otherwise; changes in a name come on top.
UniProt Q02224: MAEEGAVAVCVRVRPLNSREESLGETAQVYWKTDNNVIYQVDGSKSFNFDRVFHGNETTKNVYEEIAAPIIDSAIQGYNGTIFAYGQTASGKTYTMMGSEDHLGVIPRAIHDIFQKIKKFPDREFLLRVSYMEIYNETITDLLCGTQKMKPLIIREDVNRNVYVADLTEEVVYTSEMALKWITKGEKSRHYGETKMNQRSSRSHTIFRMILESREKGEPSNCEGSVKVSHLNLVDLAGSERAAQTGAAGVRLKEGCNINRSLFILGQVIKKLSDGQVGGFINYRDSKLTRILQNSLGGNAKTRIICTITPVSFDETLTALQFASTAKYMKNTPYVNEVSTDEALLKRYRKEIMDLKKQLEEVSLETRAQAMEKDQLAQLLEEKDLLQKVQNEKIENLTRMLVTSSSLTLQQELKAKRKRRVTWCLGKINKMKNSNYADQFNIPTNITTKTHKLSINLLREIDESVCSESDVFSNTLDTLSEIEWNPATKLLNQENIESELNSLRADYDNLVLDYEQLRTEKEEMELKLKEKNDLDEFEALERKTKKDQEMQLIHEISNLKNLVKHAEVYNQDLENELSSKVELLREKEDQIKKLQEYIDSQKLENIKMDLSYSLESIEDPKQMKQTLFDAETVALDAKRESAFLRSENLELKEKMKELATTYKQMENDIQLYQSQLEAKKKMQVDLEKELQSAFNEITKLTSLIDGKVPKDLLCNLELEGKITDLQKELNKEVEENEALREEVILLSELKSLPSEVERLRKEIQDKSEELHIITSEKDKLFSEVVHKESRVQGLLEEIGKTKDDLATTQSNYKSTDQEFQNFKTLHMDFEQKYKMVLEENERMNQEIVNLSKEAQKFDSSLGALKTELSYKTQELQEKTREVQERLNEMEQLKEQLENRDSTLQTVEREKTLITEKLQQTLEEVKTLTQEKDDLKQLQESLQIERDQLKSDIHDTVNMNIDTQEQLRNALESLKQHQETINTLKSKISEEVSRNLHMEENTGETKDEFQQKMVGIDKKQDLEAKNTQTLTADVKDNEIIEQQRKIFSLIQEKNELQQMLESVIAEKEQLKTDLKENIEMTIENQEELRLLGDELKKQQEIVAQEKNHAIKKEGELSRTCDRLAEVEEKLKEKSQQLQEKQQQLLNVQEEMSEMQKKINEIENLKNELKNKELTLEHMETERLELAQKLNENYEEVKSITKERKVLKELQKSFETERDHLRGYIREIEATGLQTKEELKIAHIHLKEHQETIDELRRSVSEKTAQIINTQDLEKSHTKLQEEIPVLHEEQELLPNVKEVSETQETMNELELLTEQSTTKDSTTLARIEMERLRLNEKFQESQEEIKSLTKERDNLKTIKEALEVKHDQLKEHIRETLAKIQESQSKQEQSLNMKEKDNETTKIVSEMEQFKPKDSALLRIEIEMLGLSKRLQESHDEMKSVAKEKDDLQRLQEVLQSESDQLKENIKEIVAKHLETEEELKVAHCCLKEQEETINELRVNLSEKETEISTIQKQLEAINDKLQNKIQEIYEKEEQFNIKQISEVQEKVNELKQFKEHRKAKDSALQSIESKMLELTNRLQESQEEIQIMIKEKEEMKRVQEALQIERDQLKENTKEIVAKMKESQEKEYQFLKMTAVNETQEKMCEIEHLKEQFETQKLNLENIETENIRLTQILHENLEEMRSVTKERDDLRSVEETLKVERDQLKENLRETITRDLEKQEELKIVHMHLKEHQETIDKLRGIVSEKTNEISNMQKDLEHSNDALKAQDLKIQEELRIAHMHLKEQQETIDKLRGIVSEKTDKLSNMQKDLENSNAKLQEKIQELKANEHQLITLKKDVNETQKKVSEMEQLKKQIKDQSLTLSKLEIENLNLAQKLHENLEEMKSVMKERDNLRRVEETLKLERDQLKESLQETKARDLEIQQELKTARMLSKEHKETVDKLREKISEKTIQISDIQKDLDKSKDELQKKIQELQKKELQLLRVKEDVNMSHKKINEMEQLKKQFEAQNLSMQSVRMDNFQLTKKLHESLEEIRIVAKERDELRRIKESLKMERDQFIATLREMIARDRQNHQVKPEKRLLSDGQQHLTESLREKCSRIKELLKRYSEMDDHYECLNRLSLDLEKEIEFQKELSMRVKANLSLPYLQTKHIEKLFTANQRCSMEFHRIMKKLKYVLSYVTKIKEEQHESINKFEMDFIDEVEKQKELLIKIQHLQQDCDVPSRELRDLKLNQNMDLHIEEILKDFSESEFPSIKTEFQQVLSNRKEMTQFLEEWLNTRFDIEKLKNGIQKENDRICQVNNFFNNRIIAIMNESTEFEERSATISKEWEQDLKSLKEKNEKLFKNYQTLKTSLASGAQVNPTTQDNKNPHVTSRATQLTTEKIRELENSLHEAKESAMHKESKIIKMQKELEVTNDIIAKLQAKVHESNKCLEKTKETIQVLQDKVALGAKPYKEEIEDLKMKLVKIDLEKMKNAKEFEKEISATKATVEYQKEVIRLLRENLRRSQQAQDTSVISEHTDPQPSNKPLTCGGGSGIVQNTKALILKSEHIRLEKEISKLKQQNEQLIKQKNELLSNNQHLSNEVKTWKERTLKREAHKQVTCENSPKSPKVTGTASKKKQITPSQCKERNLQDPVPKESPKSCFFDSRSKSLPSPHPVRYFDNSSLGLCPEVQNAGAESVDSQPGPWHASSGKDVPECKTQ

Assays:
Format in all cases: functional, cell-based
Set-up in all cases: recommended concentration 100 nM
[1] = molecular target: Centromere-associated protein E (Homo sapiens) (UniProt Q02224); assay: Affinity Phenotypic Cellular interaction: (Cell-growth inhibition assays (growth inhibitory effect colon cancer cell line MX-1)) EUB0000734a CENPE; conditions: MX1, Affinity Phenotypic Cellular Source Knowledge https://pubmed.ncbi.nlm.nih.gov/20167803/
[2] = molecular target: Centromere-associated protein E (Homo sapiens) (UniProt Q02224); assay: Affinity Phenotypic Cellular interaction: (Cell-growth inhibition assays (growth inhibitory effect colon cancer cell line CaOv-3)) EUB0000734a CENPE; conditions: Affinity Phenotypic Cellular Source Knowledge https://pubmed.ncbi.nlm.nih.gov/20167803/
[3] = molecular target: Centromere-associated protein E (Homo sapiens) (UniProt Q02224); assay: Affinity Phenotypic Cellular interaction: (Cell-growth inhibition assays (growth inhibitory effect melanoma cancer cell line C32TG)) EUB0000734a CENPE; conditions: Affinity Phenotypic Cellular Source Knowledge https://pubmed.ncbi.nlm.nih.gov/20167803/
[4] = molecular target: Centromere-associated protein E (Homo sapiens) (UniProt Q02224); assay: Affinity Phenotypic Cellular interaction: (Cell-growth inhibition assays (growth inhibitory effect colon cancer cell line Capan-2)) EUB0000734a CENPE; conditions: Affinity Phenotypic Cellular Source Knowledge https://pubmed.ncbi.nlm.nih.gov/20167803/
[5] = molecular target: Centromere-associated protein E (Homo sapiens) (UniProt Q02224); assay: Affinity Phenotypic Cellular interaction: (Cell-growth inhibition assays (growth inhibitory effect colon cancer cell line BeWo)) EUB0000734a CENPE; conditions: Affinity Phenotypic Cellular Source Knowledge https://pubmed.ncbi.nlm.nih.gov/20167803/
[6] = molecular target: Centromere-associated protein E (Homo sapiens) (UniProt Q02224); assay: Affinity Phenotypic Cellular interaction: (Cell-growth inhibition assays (growth inhibitory effect colon cancer cell line NCI-H1299)) EUB0000734a CENPE; conditions: Affinity Phenotypic Cellular Source Knowledge https://pubmed.ncbi.nlm.nih.gov/20167803/
[7] = molecular target: Centromere-associated protein E (Homo sapiens) (UniProt Q02224); assay: Affinity Phenotypic Cellular interaction: (Cell-growth inhibition assays (growth inhibitory effect colon cancer cell line NCI-H508)) EUB0000734a CENPE; conditions: Affinity Phenotypic Cellular Source Knowledge https://pubmed.ncbi.nlm.nih.gov/20167803/
[8] = molecular target: Centromere-associated protein E (Homo sapiens) (UniProt Q02224); assay: Affinity Phenotypic Cellular interaction: (Cell-growth inhibition assays (growth inhibitory effect colon cancer cell line SW1783)) EUB0000734a CENPE; conditions: Affinity Phenotypic Cellular Source Knowledge https://pubmed.ncbi.nlm.nih.gov/20167803/
[9] = molecular target: Centromere-associated protein E (Homo sapiens) (UniProt Q02224); assay: Affinity Phenotypic Cellular interaction: (Cell-growth inhibition assays (growth inhibitory effect colon cancer cell line A101D)) EUB0000734a CENPE; conditions: Affinity Phenotypic Cellular Source Knowledge https://pubmed.ncbi.nlm.nih.gov/20167803/
[10] = molecular target: Centromere-associated protein E (Homo sapiens) (UniProt Q02224); assay: Affinity Phenotypic Cellular interaction: (Cell-growth inhibition assays (growth inhibitory effect colon cancer cell line RL95-2)) EUB0000734a CENPE; conditions: Affinity Phenotypic Cellular Source Knowledge https://pubmed.ncbi.nlm.nih.gov/20167803/
[11] = molecular target: Centromere-associated protein E (Homo sapiens) (UniProt Q02224); assay: Affinity Phenotypic Cellular interaction: (Cell-growth inhibition assays (growth inhibitory effect colon cancer cell line DU4475)) EUB0000734a CENPE; conditions: DU-4475, Affinity Phenotypic Cellular Source Knowledge https://pubmed.ncbi.nlm.nih.gov/20167803/
[12] = molecular target: Centromere-associated protein E (Homo sapiens) (UniProt Q02224); assay: Affinity Phenotypic Cellular interaction: (Cell-growth inhibition assays (growth inhibitory effect colon cancer cell line SK-OV-3)) EUB0000734a CENPE; conditions: Affinity Phenotypic Cellular Source Knowledge https://pubmed.ncbi.nlm.nih.gov/20167803/
[13] = molecular target: Centromere-associated protein E (Homo sapiens) (UniProt Q02224); assay: Affinity Phenotypic Cellular interaction: (Cell-growth inhibition assays (growth inhibitory effect colon cancer cell line NCI-H187)) EUB0000734a CENPE; conditions: Affinity Phenotypic Cellular Source Knowledge https://pubmed.ncbi.nlm.nih.gov/20167803/
[14] = molecular target: Centromere-associated protein E (Homo sapiens) (UniProt Q02224); assay: Affinity Phenotypic Cellular interaction: (Cell-growth inhibition assays (growth inhibitory effect colon cancer cell line SW-684)) EUB0000734a CENPE; conditions: SW684, Affinity Phenotypic Cellular Source Knowledge https://pubmed.ncbi.nlm.nih.gov/20167803/
[15] = molecular target: Centromere-associated protein E (Homo sapiens) (UniProt Q02224); assay: Affinity Phenotypic Cellular interaction: (Cell-growth inhibition assays (growth inhibitory effect colon cancer cell line NCI-H747)) EUB0000734a CENPE; conditions: Affinity Phenotypic Cellular Source Knowledge https://pubmed.ncbi.nlm.nih.gov/20167803/
[16] = molecular target: Centromere-associated protein E (Homo sapiens) (UniProt Q02224); assay: Affinity Phenotypic Cellular interaction: (Cell-growth inhibition assays (growth inhibitory effect colon cancer cell line NCI-H716)) EUB0000734a CENPE; conditions: Affinity Phenotypic Cellular Source Knowledge https://pubmed.ncbi.nlm.nih.gov/20167803/
[17] = molecular target: Centromere-associated protein E (Homo sapiens) (UniProt Q02224); assay: Affinity Phenotypic Cellular interaction: (Cell-growth inhibition assays (growth inhibitory effect colon cancer cell line 639-V)) EUB0000734a CENPE; conditions: Affinity Phenotypic Cellular Source Knowledge https://pubmed.ncbi.nlm.nih.gov/20167803/
[18] = molecular target: Centromere-associated protein E (Homo sapiens) (UniProt Q02224); assay: Affinity Phenotypic Cellular interaction: (Cell-growth inhibition assays (growth inhibitory effect colon cancer cell line MC-IXC)) EUB0000734a CENPE; conditions: Affinity Phenotypic Cellular Source Knowledge https://pubmed.ncbi.nlm.nih.gov/20167803/
[19] = molecular target: Centromere-associated protein E (Homo sapiens) (UniProt Q02224); assay: Affinity Phenotypic Cellular interaction: (Cell-growth inhibition assays (growth inhibitory effect colon cancer cell line HMCB)) EUB0000734a CENPE; conditions: Affinity Phenotypic Cellular Source Knowledge https://pubmed.ncbi.nlm.nih.gov/20167803/
[20] = molecular target: Centromere-associated protein E (Homo sapiens) (UniProt Q02224); assay: Affinity Phenotypic Cellular interaction: (Cell-growth inhibition assays (growth inhibitory effect colon cancer cell line KM12)) EUB0000734a CENPE; conditions: Affinity Phenotypic Cellular Source Knowledge https://pubmed.ncbi.nlm.nih.gov/20167803/
[21] = molecular target: Centromere-associated protein E (Homo sapiens) (UniProt Q02224); assay: Affinity Phenotypic Cellular interaction: (Cell-growth inhibition assays (growth inhibitory effect colon cancer cell line FaDu)) EUB0000734a CENPE; conditions: Affinity Phenotypic Cellular Source Knowledge https://pubmed.ncbi.nlm.nih.gov/20167803/
[22] = molecular target: Centromere-associated protein E (Homo sapiens) (UniProt Q02224); assay: Affinity Phenotypic Cellular interaction: (Cell-growth inhibition assays (growth inhibitory effect colon cancer cell line DU145)) EUB0000734a CENPE; conditions: DU-145, Affinity Phenotypic Cellular Source Knowledge https://pubmed.ncbi.nlm.nih.gov/20167803/
[23] = molecular target: Centromere-associated protein E (Homo sapiens) (UniProt Q02224); assay: Affinity Phenotypic Cellular interaction: (Cell-growth inhibition assays (growth inhibitory effect colon cancer cell line IGROV1)) EUB0000734a CENPE; conditions: IGROV-1, Affinity Phenotypic Cellular Source Knowledge https://pubmed.ncbi.nlm.nih.gov/20167803/
[24] = molecular target: Centromere-associated protein E (Homo sapiens) (UniProt Q02224); assay: Affinity Phenotypic Cellular interaction: (Cell-growth inhibition assays (growth inhibitory effect colon cancer cell line A-431)) EUB0000734a CENPE; conditions: Affinity Phenotypic Cellular Source Knowledge https://pubmed.ncbi.nlm.nih.gov/20167803/
[25] = molecular target: Centromere-associated protein E (Homo sapiens) (UniProt Q02224); assay: Affinity Phenotypic Cellular interaction: (Cell-growth inhibition assays (growth inhibitory effect colon cancer cell line C-4II)) EUB0000734a CENPE; conditions: Affinity Phenotypic Cellular Source Knowledge https://pubmed.ncbi.nlm.nih.gov/20167803/
[26] = molecular target: Centromere-associated protein E (Homo sapiens) (UniProt Q02224); assay: Affinity Phenotypic Cellular interaction: (Cell-growth inhibition assays (growth inhibitory effect colon cancer cell line DBTRG-05MG)) EUB0000734a CENPE; conditions: Affinity Phenotypic Cellular Source Knowledge https://pubmed.ncbi.nlm.nih.gov/20167803/
[27] = molecular target: Centromere-associated protein E (Homo sapiens) (UniProt Q02224); assay: Affinity Phenotypic Cellular interaction: (Cell-growth inhibition assays (growth inhibitory effect prostate cancer cell line BM1604)) EUB0000734a CENPE; conditions: BM-1604, Affinity Phenotypic Cellular Source Knowledge https://pubmed.ncbi.nlm.nih.gov/20167803/
[28] = molecular target: Centromere-associated protein E (Homo sapiens) (UniProt Q02224); assay: Affinity Phenotypic Cellular interaction: (Cell-growth inhibition assays (growth inhibitory effect breast cancer cell line KPL-1)) EUB0000734a CENPE; conditions: Affinity Phenotypic Cellular Source Knowledge https://pubmed.ncbi.nlm.nih.gov/20167803/
[29] = molecular target: Centromere-associated protein E (Homo sapiens) (UniProt Q02224); assay: Affinity Phenotypic Cellular interaction: (Cell-growth inhibition assays (growth inhibitory effect colon cancer cell line SW-962)) EUB0000734a CENPE; conditions: Affinity Phenotypic Cellular Source Knowledge https://pubmed.ncbi.nlm.nih.gov/20167803/
[30] = molecular target: Centromere-associated protein E (Homo sapiens) (UniProt Q02224); assay: Affinity Phenotypic Cellular interaction: (Cell-growth inhibition assays (growth inhibitory effect colon cancer cell line NCI-H157)) EUB0000734a CENPE; conditions: Affinity Phenotypic Cellular Source Knowledge https://pubmed.ncbi.nlm.nih.gov/20167803/
[31] = molecular target: Centromere-associated protein E (Homo sapiens) (UniProt Q02224); assay: Affinity Phenotypic Cellular interaction: (Cell-growth inhibition assays (growth inhibitory effect colon cancer cell line SW403)) EUB0000734a CENPE; conditions: SW-403, Affinity Phenotypic Cellular Source Knowledge https://pubmed.ncbi.nlm.nih.gov/20167803/
[32] = molecular target: Centromere-associated protein E (Homo sapiens) (UniProt Q02224); assay: Affinity Phenotypic Cellular interaction: (Cell-growth inhibition assays (growth inhibitory effect colon cancer cell line SW780)) EUB0000734a CENPE; conditions: Affinity Phenotypic Cellular Source Knowledge https://pubmed.ncbi.nlm.nih.gov/20167803/
[33] = molecular target: Centromere-associated protein E (Homo sapiens) (UniProt Q02224); assay: Affinity Phenotypic Cellular interaction: (Cell-growth inhibition assays (growth inhibitory effect colon cancer cell line LS1034)) EUB0000734a CENPE; conditions: LS-1034, Affinity Phenotypic Cellular Source Knowledge https://pubmed.ncbi.nlm.nih.gov/20167803/
[34] = molecular target: Centromere-associated protein E (Homo sapiens) (UniProt Q02224); assay: Affinity Phenotypic Cellular interaction: (Cell-growth inhibition assays (growth inhibitory effect colon cancer cell line RD-ES)) EUB0000734a CENPE; conditions: Affinity Phenotypic Cellular Source Knowledge https://pubmed.ncbi.nlm.nih.gov/20167803/
[35] = molecular target: Centromere-associated protein E (Homo sapiens) (UniProt Q02224); assay: Affinity Phenotypic Cellular interaction: (Cell-growth inhibition assays (growth inhibitory effect colon cancer cell line SK-MEL-28)) EUB0000734a CENPE; conditions: SK-MEL-2, Affinity Phenotypic Cellular Source Knowledge https://pubmed.ncbi.nlm.nih.gov/20167803/

## CC(C)Oc1ccc(C(=O)N[C@H](CNC(=O)CN(C)C)Cc2ccc(-c3cn4cccc([C@H](C)O)c4n3)cc2)cc1Cl
[1]
  GIC50: 30 nM
[2]
  GIC50: 33 nM
[3]
  GIC50: 28 nM
[4]
  GIC50: 119 nM
[5]
  GIC50: 26 nM
[6]
  GIC50: 52 nM
[7]
  GIC50: 32 nM
[8]
  GIC50: 34 nM
[9]
  GIC50: 17 nM
[10]
  GIC50: 49 nM
[11]
  GIC50: 147 nM
[12]
  GIC50: 26 nM
[13]
  GIC50: 68 nM
[14]
  GIC50: 5.02 µM
[15]
  GIC50: 163 nM
[16]
  GIC50: 174 nM
[17]
  GIC50: 27 nM
[18]
  GIC50: 27 nM
[19]
  GIC50: 25 nM
[20]
  GIC50: 56 nM
[21]
  GIC50: 32 nM
[22]
  GIC50: 23 nM
[23]
  GIC50: 31 nM
[24]
  GIC50: 21 nM
[25]
  GIC50: 46 nM
[26]
  GIC50: 17 nM
[27]
  GIC50: 40 nM
[28]
  GIC50: 31 nM
[29]
  GIC50: 21 nM
[30]
  GIC50: 37 nM
[31]
  GIC50: 24 nM
[32]
  GIC50: 30 nM
[33]
  GIC50: 97 nM
[34]
  GIC50: 63 nM
[35]
  GIC50: 31 nM
